Assay results from PMC3151283.
No constants are given. Whether binding was seen depends on the method and setting. In cells and extracts the contact can be indirect. Some entries that bind do so weakly or less than the wild type.

Chains of the proteins cited; added tags and fusions are not shown. Residues count along the entry.
UniProt P35222: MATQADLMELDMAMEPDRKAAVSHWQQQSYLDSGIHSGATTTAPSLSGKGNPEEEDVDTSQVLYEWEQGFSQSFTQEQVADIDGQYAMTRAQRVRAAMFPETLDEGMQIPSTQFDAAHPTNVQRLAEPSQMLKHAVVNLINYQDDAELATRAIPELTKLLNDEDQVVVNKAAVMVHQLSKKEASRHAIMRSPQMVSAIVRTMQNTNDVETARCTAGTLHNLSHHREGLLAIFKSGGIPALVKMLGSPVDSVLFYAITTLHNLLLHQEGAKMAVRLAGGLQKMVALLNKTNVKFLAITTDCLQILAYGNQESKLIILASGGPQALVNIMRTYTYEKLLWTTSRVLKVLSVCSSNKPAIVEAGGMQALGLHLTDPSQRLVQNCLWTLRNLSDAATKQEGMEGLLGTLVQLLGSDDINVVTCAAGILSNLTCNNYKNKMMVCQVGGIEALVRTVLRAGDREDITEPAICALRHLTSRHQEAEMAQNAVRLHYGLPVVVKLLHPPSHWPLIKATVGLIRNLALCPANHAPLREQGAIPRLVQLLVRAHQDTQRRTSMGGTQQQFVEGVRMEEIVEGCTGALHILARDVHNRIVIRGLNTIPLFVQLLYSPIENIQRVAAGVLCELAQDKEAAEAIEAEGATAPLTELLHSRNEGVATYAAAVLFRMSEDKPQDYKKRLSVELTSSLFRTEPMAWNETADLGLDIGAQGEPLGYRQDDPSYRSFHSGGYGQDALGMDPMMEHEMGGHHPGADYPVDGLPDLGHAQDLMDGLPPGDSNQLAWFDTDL
UniProt P78310, residues 20-365: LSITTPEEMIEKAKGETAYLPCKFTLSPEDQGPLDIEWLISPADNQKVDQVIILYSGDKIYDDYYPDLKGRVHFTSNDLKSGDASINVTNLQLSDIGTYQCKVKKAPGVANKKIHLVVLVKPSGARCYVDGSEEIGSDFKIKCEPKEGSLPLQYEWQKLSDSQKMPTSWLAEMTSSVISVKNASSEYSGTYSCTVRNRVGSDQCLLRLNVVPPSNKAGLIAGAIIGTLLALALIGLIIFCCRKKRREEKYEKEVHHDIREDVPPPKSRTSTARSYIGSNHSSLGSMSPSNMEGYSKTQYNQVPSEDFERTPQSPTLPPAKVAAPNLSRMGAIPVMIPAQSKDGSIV

Target: β-catenin (human (endogenous in MCF7)) (UniProt P35222)
Assay: co-IP; β-catenin antibody (Santa Cruz) and protein A/G beads from RIPA lysates of MCF7 and FLCARMCF7 cells, 4°C; cells untreated or incubated with Ad5eGFP (9000 VP/cell) or FK (160 µg/ml) for 3 min, 10 min or 6 hours; control IgG; blots probed for E-cadherin and re-probed for CAR

binding: binds
Substance: full-length human CAR C-terminally tagged with monomeric red fluorescent protein (from UniProt P78310 20-365) (receptor)
